Test results as given in patent publication US20140314789A1.
These are yes or no findings as the source states them, for the method shown. In cells and extracts the contact can be indirect. Some entries that bind do so weakly or less than the wild type. For some of these results: Where a sequence is shown, tags or fusion partners need not be part of it. Blank lines part the entries; values can stand above or below the binder they belong to.

Sequences of proteins named here, by UniProt entry; tags and fusion partners are left off.
UniProt P29994: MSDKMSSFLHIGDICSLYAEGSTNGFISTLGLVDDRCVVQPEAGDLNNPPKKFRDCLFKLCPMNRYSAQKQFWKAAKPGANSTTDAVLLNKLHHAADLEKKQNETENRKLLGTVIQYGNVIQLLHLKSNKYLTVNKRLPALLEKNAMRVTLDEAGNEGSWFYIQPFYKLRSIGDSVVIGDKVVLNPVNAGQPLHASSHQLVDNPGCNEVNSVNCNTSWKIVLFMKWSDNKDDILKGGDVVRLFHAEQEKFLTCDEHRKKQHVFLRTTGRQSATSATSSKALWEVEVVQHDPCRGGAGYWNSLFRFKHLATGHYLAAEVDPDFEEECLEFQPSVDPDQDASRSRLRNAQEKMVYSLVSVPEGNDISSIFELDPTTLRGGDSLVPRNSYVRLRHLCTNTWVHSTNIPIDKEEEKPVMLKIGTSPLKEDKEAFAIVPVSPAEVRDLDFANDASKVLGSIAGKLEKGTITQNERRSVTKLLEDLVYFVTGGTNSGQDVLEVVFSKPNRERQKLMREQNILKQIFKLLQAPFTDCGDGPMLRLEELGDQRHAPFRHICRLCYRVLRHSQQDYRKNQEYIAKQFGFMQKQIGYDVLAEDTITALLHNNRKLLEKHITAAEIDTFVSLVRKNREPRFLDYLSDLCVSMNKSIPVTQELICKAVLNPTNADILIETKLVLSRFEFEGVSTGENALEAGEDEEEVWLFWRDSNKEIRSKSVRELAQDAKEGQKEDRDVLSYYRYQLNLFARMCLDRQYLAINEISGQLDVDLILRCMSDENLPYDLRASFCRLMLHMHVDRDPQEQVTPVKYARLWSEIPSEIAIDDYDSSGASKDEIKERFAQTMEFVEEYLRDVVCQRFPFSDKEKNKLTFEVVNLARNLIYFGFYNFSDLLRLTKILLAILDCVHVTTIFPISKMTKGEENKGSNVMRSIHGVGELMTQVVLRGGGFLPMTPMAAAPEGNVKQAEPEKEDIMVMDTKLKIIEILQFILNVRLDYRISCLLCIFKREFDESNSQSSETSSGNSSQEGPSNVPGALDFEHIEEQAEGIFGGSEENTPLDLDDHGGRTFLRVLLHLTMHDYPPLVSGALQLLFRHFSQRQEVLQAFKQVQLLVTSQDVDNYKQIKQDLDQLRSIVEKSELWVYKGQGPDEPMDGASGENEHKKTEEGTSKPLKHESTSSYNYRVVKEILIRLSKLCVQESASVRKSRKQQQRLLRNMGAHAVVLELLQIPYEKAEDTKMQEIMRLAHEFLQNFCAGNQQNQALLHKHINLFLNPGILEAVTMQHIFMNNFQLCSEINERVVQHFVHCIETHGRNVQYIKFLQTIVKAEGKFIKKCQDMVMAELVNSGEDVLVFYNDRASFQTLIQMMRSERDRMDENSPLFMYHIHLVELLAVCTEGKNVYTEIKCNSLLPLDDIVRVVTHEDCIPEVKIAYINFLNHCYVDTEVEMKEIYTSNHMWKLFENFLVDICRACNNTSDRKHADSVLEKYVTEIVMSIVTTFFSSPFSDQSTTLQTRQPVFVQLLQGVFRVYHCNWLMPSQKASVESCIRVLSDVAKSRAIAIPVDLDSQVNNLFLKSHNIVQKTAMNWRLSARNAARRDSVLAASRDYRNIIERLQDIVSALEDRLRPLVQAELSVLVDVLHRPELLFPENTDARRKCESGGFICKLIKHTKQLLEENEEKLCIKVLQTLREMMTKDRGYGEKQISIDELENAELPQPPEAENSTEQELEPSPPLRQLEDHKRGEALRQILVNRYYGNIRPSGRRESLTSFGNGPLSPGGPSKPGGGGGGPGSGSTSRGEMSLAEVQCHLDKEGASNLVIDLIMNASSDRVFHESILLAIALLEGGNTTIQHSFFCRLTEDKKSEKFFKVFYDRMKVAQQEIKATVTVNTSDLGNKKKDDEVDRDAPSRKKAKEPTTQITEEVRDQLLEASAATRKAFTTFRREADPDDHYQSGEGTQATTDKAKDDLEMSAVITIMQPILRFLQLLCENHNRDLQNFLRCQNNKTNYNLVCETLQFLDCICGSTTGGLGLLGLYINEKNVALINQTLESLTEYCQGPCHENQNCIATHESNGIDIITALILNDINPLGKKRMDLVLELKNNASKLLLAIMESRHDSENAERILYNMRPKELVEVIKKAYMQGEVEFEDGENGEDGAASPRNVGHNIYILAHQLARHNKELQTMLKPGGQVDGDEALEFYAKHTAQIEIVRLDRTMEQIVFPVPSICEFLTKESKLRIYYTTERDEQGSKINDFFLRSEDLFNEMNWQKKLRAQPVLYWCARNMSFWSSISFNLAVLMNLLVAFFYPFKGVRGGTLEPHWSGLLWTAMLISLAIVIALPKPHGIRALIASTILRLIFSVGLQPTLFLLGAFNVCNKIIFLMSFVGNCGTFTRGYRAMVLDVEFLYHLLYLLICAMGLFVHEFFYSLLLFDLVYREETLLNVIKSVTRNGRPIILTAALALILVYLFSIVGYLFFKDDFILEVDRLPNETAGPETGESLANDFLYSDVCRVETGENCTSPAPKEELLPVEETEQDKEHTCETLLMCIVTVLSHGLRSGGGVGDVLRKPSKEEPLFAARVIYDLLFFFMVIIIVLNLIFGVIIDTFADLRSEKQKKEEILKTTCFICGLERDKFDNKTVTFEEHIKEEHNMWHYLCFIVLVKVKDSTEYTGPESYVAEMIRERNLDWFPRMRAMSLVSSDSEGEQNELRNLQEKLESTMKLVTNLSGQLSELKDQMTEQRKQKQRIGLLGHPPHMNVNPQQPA
UniProt P11881: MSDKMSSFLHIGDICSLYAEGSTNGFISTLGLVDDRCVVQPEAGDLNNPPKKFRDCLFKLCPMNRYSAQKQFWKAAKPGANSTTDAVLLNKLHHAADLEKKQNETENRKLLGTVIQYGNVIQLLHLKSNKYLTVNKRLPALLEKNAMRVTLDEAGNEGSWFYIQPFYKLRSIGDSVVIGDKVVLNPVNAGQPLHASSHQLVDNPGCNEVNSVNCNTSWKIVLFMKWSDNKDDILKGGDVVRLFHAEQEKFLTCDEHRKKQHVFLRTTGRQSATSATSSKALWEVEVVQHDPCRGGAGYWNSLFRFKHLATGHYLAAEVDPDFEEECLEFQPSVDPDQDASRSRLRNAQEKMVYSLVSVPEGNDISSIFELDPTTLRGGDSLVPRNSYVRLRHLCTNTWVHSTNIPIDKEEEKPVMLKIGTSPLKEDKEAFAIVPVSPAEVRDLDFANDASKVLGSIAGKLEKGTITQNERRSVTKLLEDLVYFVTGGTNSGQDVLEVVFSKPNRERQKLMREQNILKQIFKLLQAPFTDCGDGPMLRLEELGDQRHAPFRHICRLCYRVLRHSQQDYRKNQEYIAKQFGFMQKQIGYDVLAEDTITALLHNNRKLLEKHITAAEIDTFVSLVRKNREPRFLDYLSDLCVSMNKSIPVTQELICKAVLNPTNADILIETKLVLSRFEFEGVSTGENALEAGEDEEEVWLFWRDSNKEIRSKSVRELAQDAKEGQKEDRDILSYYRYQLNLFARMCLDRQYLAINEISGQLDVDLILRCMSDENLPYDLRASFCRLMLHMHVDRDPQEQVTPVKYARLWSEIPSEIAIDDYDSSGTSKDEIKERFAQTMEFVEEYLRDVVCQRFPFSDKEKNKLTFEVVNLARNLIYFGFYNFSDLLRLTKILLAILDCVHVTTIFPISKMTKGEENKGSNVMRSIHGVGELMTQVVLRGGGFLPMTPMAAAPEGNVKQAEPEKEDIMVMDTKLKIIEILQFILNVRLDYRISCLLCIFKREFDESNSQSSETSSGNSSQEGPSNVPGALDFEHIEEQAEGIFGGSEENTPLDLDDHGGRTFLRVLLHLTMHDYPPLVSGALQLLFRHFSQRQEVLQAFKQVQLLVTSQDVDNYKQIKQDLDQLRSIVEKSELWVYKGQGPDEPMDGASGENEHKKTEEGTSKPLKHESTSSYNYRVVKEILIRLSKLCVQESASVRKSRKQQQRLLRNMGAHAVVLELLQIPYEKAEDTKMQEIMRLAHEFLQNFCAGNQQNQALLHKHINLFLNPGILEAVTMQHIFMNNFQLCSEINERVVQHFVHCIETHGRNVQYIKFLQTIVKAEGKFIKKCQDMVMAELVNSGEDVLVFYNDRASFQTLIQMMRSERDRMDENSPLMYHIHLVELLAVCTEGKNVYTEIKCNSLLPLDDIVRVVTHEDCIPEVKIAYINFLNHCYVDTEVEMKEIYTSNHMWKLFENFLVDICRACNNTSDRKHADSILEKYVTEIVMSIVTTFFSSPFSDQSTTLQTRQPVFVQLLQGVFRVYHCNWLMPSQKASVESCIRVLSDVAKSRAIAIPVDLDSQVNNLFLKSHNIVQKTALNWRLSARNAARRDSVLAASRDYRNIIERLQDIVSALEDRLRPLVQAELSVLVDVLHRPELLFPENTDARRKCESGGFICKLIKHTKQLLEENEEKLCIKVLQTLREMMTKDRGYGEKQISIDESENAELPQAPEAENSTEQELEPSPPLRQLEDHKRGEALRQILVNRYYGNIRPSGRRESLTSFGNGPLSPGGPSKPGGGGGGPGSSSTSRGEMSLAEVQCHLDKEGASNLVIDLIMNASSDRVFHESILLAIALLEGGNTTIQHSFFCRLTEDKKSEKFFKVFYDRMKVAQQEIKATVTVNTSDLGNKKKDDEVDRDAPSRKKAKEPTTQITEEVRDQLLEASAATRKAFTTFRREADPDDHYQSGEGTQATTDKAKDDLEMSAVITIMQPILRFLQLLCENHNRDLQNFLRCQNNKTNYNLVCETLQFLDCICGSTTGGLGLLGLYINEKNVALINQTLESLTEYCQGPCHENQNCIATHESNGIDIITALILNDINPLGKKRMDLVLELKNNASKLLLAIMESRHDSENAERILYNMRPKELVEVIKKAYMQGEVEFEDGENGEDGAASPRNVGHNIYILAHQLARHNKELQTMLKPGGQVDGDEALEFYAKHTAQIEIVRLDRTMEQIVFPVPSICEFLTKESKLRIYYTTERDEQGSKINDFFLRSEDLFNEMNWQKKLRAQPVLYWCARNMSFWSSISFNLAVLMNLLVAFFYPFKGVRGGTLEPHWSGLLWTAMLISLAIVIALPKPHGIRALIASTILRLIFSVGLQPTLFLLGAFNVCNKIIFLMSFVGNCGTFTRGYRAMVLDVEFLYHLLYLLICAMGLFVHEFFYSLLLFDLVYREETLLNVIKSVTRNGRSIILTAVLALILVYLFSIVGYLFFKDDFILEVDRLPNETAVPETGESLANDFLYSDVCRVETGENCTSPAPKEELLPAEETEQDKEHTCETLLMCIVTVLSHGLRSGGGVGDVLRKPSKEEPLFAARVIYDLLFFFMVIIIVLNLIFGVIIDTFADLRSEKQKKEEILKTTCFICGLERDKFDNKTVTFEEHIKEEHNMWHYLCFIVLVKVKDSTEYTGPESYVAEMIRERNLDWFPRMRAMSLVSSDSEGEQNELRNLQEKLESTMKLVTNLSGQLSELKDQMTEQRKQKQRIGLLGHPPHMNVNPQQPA

How the values were obtained:
[1] = target: HA-tagged InsP3R1 (rat) (UniProt P29994); test: co-immunoprecipitation, HA IP and Flag immunoblot, HEK293T cells
[2] = target: HA-tagged InsP3R1 (rat) (UniProt P29994); test: co-immunoprecipitation of tagged proteins in HEK293T cells (FIGS. 45B-D)
[3] = target: InsP3R1 in primary mouse hepatocytes (mouse) (UniProt P11881); test: co-immunoprecipitation in primary hepatocytes (FIG. 35F)
[4] = target: InsP3R1 in primary mouse hepatocytes (mouse) (UniProt P11881); test: co-immunoprecipitation, primary hepatocytes, with or without glucagon (100 nM; 15 minutes)

- binding [1]: binds
- binding [2]: binds
B1: Flag-tagged CRTC2 (wild-type) (protein, mouse, UniProt Q3U182 1-692, looked up)
chain: MATSGANGPGSATASASNPRKFSEKIALQKQRQAEETAAFEEVMMDIGSTRLQAQKLRLAYTRSSHYGGSLPNVNQIGCGLAEFQSPLHSPLDSSRSTRHHGLVERVQRDARRMVSPLRRYPRHIDSSPYSPAYLSPPPESGWRRMMPWGNLPAEKGQLFRLPSALNRTSSDSALHTSVMNPNPQDTYPGPTPPSVLPSRRGGGFLDGEMDAKVPAIEENVVDDKHLLKPWDAKKLSSSSSRPRSCEVPGINIFPSPDQPANVPVLPPAMNTGGSLPDLTNLHFPPPLPTPLDPEETVYPSLSGGNSTTNLTHTMTHLGISGGLGLGPSYDVPGLHSPLSHPSLQSSLSNPNLQASLSSPQPQLQGSHSHPSLPASSLAHHALPTTSLGHPSLSAPALSSSSSSSSTSSPVLSAPPYPASTPGASPRHRRVPLSPLSLPAGPADARRSQQQLPKQFSPTMSPTLSSITQGVPLDTSKLPTDQRLPPYPYSPPSLVIPTHPPTPKSLQQLPSQACLVQPSGGQPPGRQPHYGALYPPGSSGHGQQPYHRPINDFSLGNLEQFNMESPSTSLVLDPPAFSEGPGFLGSEGSMSGPQDPHVLNHQNLTHCSRHGSGPNIILTGDSSPGFSKEIAAALAGVPGFEVSASGLELGLGLEDELRMEPLGLEGLTMLSDPCALLPDPAVEDSFRSDRLQ

- binding [3]: binds
- binding [4]: binds
B2: CRTC2 in primary mouse hepatocytes (protein, UniProt Q3U182 2-692, looked up)
chain: ATSGANGPGSATASASNPRKFSEKIALQKQRQAEETAAFEEVMMDIGSTRLQAQKLRLAYTRSSHYGGSLPNVNQIGCGLAEFQSPLHSPLDSSRSTRHHGLVERVQRDARRMVSPLRRYPRHIDSSPYSPAYLSPPPESGWRRMMPWGNLPAEKGQLFRLPSALNRTSSDSALHTSVMNPNPQDTYPGPTPPSVLPSRRGGGFLDGEMDAKVPAIEENVVDDKHLLKPWDAKKLSSSSSRPRSCEVPGINIFPSPDQPANVPVLPPAMNTGGSLPDLTNLHFPPPLPTPLDPEETVYPSLSGGNSTTNLTHTMTHLGISGGLGLGPSYDVPGLHSPLSHPSLQSSLSNPNLQASLSSPQPQLQGSHSHPSLPASSLAHHALPTTSLGHPSLSAPALSSSSSSSSTSSPVLSAPPYPASTPGASPRHRRVPLSPLSLPAGPADARRSQQQLPKQFSPTMSPTLSSITQGVPLDTSKLPTDQRLPPYPYSPPSLVIPTHPPTPKSLQQLPSQACLVQPSGGQPPGRQPHYGALYPPGSSGHGQQPYHRPINDFSLGNLEQFNMESPSTSLVLDPPAFSEGPGFLGSEGSMSGPQDPHVLNHQNLTHCSRHGSGPNIILTGDSSPGFSKEIAAALAGVPGFEVSASGLELGLGLEDELRMEPLGLEGLTMLSDPCALLPDPAVEDSFRSDRLQ
